Assay results published in PubChem BioAssay AID652054 (National Center for Advancing Translational Sciences (NCATS), 2013).
Among all 360,000 compounds or so, about 9,100 (2.5%) were called active. Inconclusive means that the source gave no clear call. Such entries were picked first, then a sample of the others. No stated cut-off is given here; in the data, active means max response below about -50%; inconclusive means no clear call, values can overlap the other calls; inactive means above that.

Protein sequences, listed by entry. Tags and fused reporters are not part of them.
UniProt P35462, whole entry, looked up: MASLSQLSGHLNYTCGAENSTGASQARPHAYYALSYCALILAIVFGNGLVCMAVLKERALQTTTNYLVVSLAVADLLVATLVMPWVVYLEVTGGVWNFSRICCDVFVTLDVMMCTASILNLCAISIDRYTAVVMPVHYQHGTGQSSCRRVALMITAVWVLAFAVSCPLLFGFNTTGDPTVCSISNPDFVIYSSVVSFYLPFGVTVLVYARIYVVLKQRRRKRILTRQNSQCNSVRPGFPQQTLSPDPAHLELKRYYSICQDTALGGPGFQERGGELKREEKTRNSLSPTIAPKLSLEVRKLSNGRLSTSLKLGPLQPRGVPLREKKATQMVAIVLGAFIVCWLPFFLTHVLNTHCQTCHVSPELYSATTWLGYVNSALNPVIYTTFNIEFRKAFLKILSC

target: D(3) dopamine receptor (Homo sapiens) (UniProt P35462); assay: qHTS of D3 Dopamine Receptor Antagonist: qHTS; settings: D3R cells, DiscoveRx beta-arrestin luminescence, antagonist mode; hits give low values
Summary of the method: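 Cells expressing the human receptor were seeded at 1500 cells/well, incubated overnight at 37 degrees C in 5% CO2, then exposed to library compounds with dopamine controls for 90 minutes at 37 degrees C before luminescent detection.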
On the % scale 0 is the no-effect control and ±100 the full control effect.

SMILES	max response, negative = inhibition
CN(CC(=O)Nc1ccc(F)c(F)c1F)C(=O)C1CC(=O)N(C2CCCC2)C1 (configuration not stated)	inconclusive: -48.9%
c1ccc(C(c2ccccc2)N2CCN(c3ccc4ccccc4n3)CC2)cc1	inactive: 0%
CCOC(=O)C1CCN(C(=O)CNS(=O)(=O)c2ccc(Br)s2)CC1	inconclusive: -35.8%
CCCCC[n+]1ccn(C2=C([O-])c3ccccc3C(=O)/C2=N\S(=O)(=O)c2ccc(Cl)cc2)c1	inconclusive: -36.1%
N#Cc1cccc(NC(=O)CN2CCCCCC2)c1	active: -64.8%
CCOC(=O)CN1C(=O)C(=O)c2cc(C)ccc21	inconclusive: -37.7%
CC(C)(C)CC(=O)NC(=S)NCCc1ccccc1	inconclusive: -30.9%
O=C(c1ccc([N+](=O)[O-])cc1)N1CCc2ccccc2C1	inactive: 3.74%
O=CNc1cc(-c2ccccc2)cn2c(-c3ccc(F)c(Cl)c3)cnc12	inconclusive: -36%
COC(C#CCCN(C)C)(c1ccccc1)c1ccccc1	inconclusive: -45.2%
O=C(O)c1cccc(N/N=C/C2=C(Cl)c3cc(Cl)ccc3SC2)c1	inactive: -6.1%
COc1ccc(CC(O)CC2c3c(cc4c(c3OC)OCO4)CCN2C)cc1 (configuration not stated)	active: -68.9%
C=CCc1cc(Cl)ccc1OCCOCCNCCOC	inactive: -15.8%
CC(C)=C1C2C=CC1C1C(=O)N(c3ccc4c(c3)OCO4)C(=O)C21 (configuration not stated)	inconclusive: -34.8%
O=C(O)c1cc([N+](=O)[O-])ccc1NCc1ccccc1Cl	inconclusive: -32.9%
Fc1ccc(NC(=S)NCCN2CCOCC2)cc1	inactive: 13.6%
COc1ccccc1C(=O)NCCn1cc(SCC(=O)NCC2CCCO2)c2ccccc21 (configuration not stated)	inconclusive: -42.5%
COc1ccccc1CC(=O)Nc1ccc2c(c1)CCC2	inconclusive: -33.9%
O=C(COC(=O)c1nc(-c2ccccc2)n(-c2cccc(C(F)(F)F)c2)n1)NCc1cccs1	inactive: -10.6%
CCN(CC)C(=O)c1cccc(-c2csc(C(O)c3ccccc3)n2)c1 (configuration not stated)	inactive: 59.5%
O=C(NC1CCN(C(=O)N2c3ccccc3Sc3ccccc32)CC1)c1ccco1	inconclusive: -43.1%
Cn1cc(CN2CCC(Oc3ccc(C(=O)N4CCCC4)cc3)CC2)cn1	inactive: 0%

SMILES	max response, negative = inhibition
N#Cc1ccsc1NC(=O)c1cccc([N+](=O)[O-])c1	inconclusive: -37.6%
COc1ccc(C(CNC(=O)c2cc3c(s2)CCC(C)C3)N2CCOCC2)cc1 (configuration not stated)	active: -103%
CC(C)C(=O)N1CCC2(CC1)Oc1ccc(Cl)cc1C(=O)C21CC(c2ccccc2)=NO1 (configuration not stated)	inconclusive: -43.9%
CC1CN(CCCCOc2ccc(Cl)c3ccccc23)CC(C)O1 (configuration not stated)	inconclusive: -49.7%
CCN(Cc1ccccc1)C(=O)C1CCN(Cc2ccc(OC)c(OC)c2OC)CC1	active: -51.4%
CCN(Cc1ccccc1)S(=O)(=O)c1ccc(C(=O)Nc2nnc(-c3ccccc3OC)o2)cc1	active: -85.9%
OCC1(Cc2cccc(Cl)c2)CCCN(Cc2cn[nH]c2C2CCCCC2)C1 (configuration not stated)	inconclusive: -45.5%
C/C=C/c1ccc(OCCCCOc2ccccc2C(C)=O)c(OC)c1	inactive: 13.5%
C=CCn1c(Sc2ccccc2)nc2c1c(=O)[nH]c(=O)n2C	inactive: -2.32%
CC(=O)Nc1ccc(-c2ccccc2)s1	inconclusive: -32.5%
C#CCOCCOCCOCCNc1nc(N2CCN(C(=O)CCCCCCCCCCNC(=O)[C@@H](CCSC)n3cc(CCO)nn3)CC2)nc(N2CCN(C(=O)CCCCCCCCCCNC(=O)[C@H](CO)n3cc(CCCCCN)nn3)CC2)n1	inactive: 68.5%
CCC(C)c1ccc(NC(=O)C2CCN(c3ncccn3)CC2)cc1 (configuration not stated)	inconclusive: -30.3%
CCC(CC)c1nnc(NC(=O)Oc2ccccc2)s1	active: -69%
CN(C)c1cccc(C(=O)Nc2ccc(S(=O)(=O)Nc3nccs3)cc2)c1	inconclusive: -34.5%
O=c1cc(CN2CCc3ccccc32)nc2sccn12	inactive: -23.9%
C#CCOCCOCCOCCNc1nc(N2CCN(C(=O)CCCCCCCCCCNC(=O)[C@@H](CCC(=O)O)n3cc(CCCCCN)nn3)CC2)nc(N2CCN(C(=O)CCCCCCCCCCNC(=O)[C@H](CCCCN)n3cc(C[C@@H](C)CC)nn3)CC2)n1	inconclusive: -37.9%
Cc1ccc(CN2CCN(/N=C/c3sccc3C)CC2)c(C)c1	inconclusive: -34.8%
O=C(CNS(=O)(=O)c1cccc(Br)c1)NCC1CCCCC1	inactive: -2.22%
Cc1ccc(CNC(=O)c2ccc(CNc3c(N4CCCC4)c(=O)c3=O)cc2)cc1	inactive: -5.26%
COc1ccc(Cl)cc1NC(=S)NCCC(c1ccccc1)c1ccccc1	active: -64.6%
Cc1nc(CC(=O)c2ccc(O)cc2O)cs1	inactive: -19.4%
O=C(Cc1ccc([N+](=O)[O-])cc1)N1N=C2CCCCC2C1(O)C(F)(F)F (configuration not stated)	inconclusive: -36.6%

SMILES	max response, negative = inhibition
BrC(/C=N/Nc1nc(N2CCOCC2)nc(N2CCOCC2)n1)=C/c1ccccc1	inconclusive: -34.5%
CCOc1ccc(C(=O)NC(=S)Nc2ccccc2N2CCCCC2)cc1[N+](=O)[O-]	inactive: -15%
O=C(NCCN1CCOCC1)c1cc(-c2ccccc2)nc2ccccc12	inconclusive: -33.6%
COc1cccc(OCCCCN2CC(C)OC(C)C2)c1 (configuration not stated)	active: -86.7%
Oc1c(Cl)c(Cl)c2ncccc2c1Cl	inactive: 5.73%
C[C@@]12C(=O)Nc3cc(F)c(F)cc3C(=O)N1[C@H]1c3ccccc3OC[C@@H]1[C@@H]2c1ccccc1	inactive: -2.28%
CC(C)(C)Cc1c(-c2ccc(C#N)cc2)nc2ccc(Cl)cn12	inconclusive: -33.5%
O=C(N/N=C/c1cc([N+](=O)[O-])ccc1O)Nc1ccccc1	active: -75.1%
O=C(N/N=C/c1cccc([N+](=O)[O-])c1)c1cc2ccccc2o1	inconclusive: -49.2%
COc1ccc(CCNc2ccc([N+](=O)[O-])cn2)cc1	inconclusive: -40.3%
COc1ccc(-n2c(=S)[nH]c3cc(C(=O)NCCCN4CCCC4=O)ccc3c2=O)cc1	inconclusive: -43.2%
O=C(CNC(=O)c1cc2c(s1)CCC2)Nc1ccccc1Br	inconclusive: -49.2%
CCn1c(-c2c(Cl)c(C)nn2C)n[nH]c1=S	inconclusive: -31.7%
CC(=O)N1CCN(CCN=CC2=C(O)CC(c3cccs3)CC2=O)CC1 (configuration not stated)	inconclusive: -37.7%
O=C(CSc1ncnc2c1oc1ccccc12)Nc1nccs1	inconclusive: -39.4%
CC1CN(c2nc(Nc3ccccc3)nc(N)c2[N+](=O)[O-])CC(C)O1 (configuration not stated)	inactive: 14.2%
Cc1ccc([N+](=O)[O-])c(OCCCNCC(C)O)c1 (configuration not stated)	inconclusive: -46.4%
Cc1cccc(NC2=C/C(=N/S(=O)(=O)c3cccs3)c3ccccc3C2=O)c1	active: -92.6%
Cn1c(=O)c2c(nc(-n3ccnc3)n2Cc2ccc([N+](=O)[O-])cc2)n(C)c1=O	inconclusive: -32.7%
Cn1c(CNC(=O)Nc2cccc(Cl)c2)nnc1SCc1ccccc1	inconclusive: -35.8%
O=C(COc1ccccc1)NNC(=O)COc1ccc([N+](=O)[O-])cc1	inactive: -9.93%
Cc1cc2c3c(c1)C1(C(=O)N3C(C)(C)CC2C)C(C#N)=C(N)Oc2n[nH]c(C)c21 (configuration not stated)	inactive: -10.3%

Reformatted: 4 of the compounds above.

| SMILES | max response, negative = inhibition |
| --- | --- |
| CC(C)=C1C2C=CC1C1C(=O)N(c3ccc4c(c3)OCO4)C(=O)C21 (configuration not stated) | inconclusive: -34.8% |
| O=C(O)c1cc([N+](=O)[O-])ccc1NCc1ccccc1Cl | inconclusive: -32.9% |
| Fc1ccc(NC(=S)NCCN2CCOCC2)cc1 | inactive: 13.6% |
| COc1ccccc1C(=O)NCCn1cc(SCC(=O)NCC2CCCO2)c2ccccc21 (configuration not stated) | inconclusive: -42.5% |

Further structures

SMILES	max response, negative = inhibition
COc1cc(O)c(C(CCN2CCCC(C)C2)c2ccc3c(c2)OCO3)c(OC)c1 (configuration not stated)	active: -67.8%
O=C(NCN1CCN(c2ccccc2F)CC1)c1ccccc1	inconclusive: -39.8%
Cc1nonc1OCCN1CCN(c2ccccc2[N+](=O)[O-])CC1	active: -58.2%
S=C(NCc1ccccc1)NCc1ccccc1Cl	inconclusive: -32.8%
Cc1c(C(=O)c2ccccc2)oc2ccc3ccccc3c12	inactive: -7.32%
CC(C)(CN1CCc2ccccc2C1)NS(=O)(=O)c1ccccc1	inconclusive: -47.2%
COc1ccc(OC)c(C2CC(c3ccccc3)=NN2C(=S)Nc2ccccc2)c1 (configuration not stated)	inconclusive: -38.5%
O=C1C=C(NCCN2CCOCC2)CC(c2ccccc2)C1 (configuration not stated)	inconclusive: -46.6%
c1ccc2c(-c3cc(NCc4ccncc4)n4nccc4n3)cccc2c1	inactive: -13.5%
CC1(C(=O)NCc2ccccc2Br)CCN1C(=O)Cc1ccc(-c2ccccc2)cc1 (configuration not stated)	inactive: 2.69%
CCN(CC)c1ccc(C(=O)NC(=S)N2CCN(Cc3ccc4c(c3)OCO4)CC2)cc1	inconclusive: -47%
Fc1ccccc1/C=N/N1CCN(Cc2ccccc2Cl)CC1	inconclusive: -47.4%
Cc1cccc(C)c1-n1nnnc1C(c1cccc2ccccc12)N1CCN(C/C=C/c2ccccc2)CC1 (configuration not stated)	active: -107%
Cc1cc(Cl)ccc1OCCCC(=O)Nc1cccnc1	inconclusive: -32.2%
CN(CC(=O)NCc1ccc(F)cc1)Cc1cccc(Cl)c1	inconclusive: -36.2%
O=C(CN1CCN(Cc2ccccc2)CC1)Nc1ccc(Cl)cn1	inconclusive: -49.4%
Cc1ccc(C(=O)NCN2CCN(c3ccccc3)CC2)cc1	inconclusive: -36.2%
CC(C)(C)C(=O)Nc1ccc(C(=O)NCc2cccnc2)cc1	inconclusive: -41.7%
O=c1cc(-c2ccccc2)cc(-c2ccccc2)n1O	inactive: 28.9%
CC(C)NC(=O)c1sc2nc(-c3cccs3)cc(-c3cccs3)c2c1N	inconclusive: -44.4%
Cc1csc(=O)n1CC(=O)Nc1ccc(C(C)C)cc1	inconclusive: -44.6%
